Results are given in words; binding and its absence hold for the method and conditions named. Binding seen in cells or lysates may run through a third protein. Some results given as binding are weak or reduced against the parent protein; the word gives no strength.
Molecular target: full-length Nav1.5 (3xHA-Nav1.5 and 3xFLAG-Nav1.5) (human) (UniProt Q14524)
Assay: co-IP; anti-HA magnetic beads; 1% digitonin lysates of co-transfected tsA201 cells (48 h) diluted in TBS, 4 °C overnight; eluate in LDS sample buffer reduced with 100 mM DTT; immunoblot

B1: α1-syntrophin (protein, UniProt Q13424 1-505)
chain: MASGRRAPRTGLLELRAGAGSGAGGERWQRVLLSLAEDVLTVSPADGDPGPEPGAPREQEPAQLNGAAEPGAGPPQLPEALLLQRRRVTVRKADAGGLGISIKGGRENKMPILISKIFKGLAADQTEALFVGDAILSVNGEDLSSATHDEAVQVLKKTGKEVVLEVKYMKDVSPYFKNSTGGTSVGWDSPPASPLQRQPSSPGPTPRNFSEAKHMSLKMAYVSKRCTPNDPEPRYLEICSADGQDTLFLRAKDEASARSWATAIQAQVNTLTPRVKDELQALLAATSTAGSQDIKQIGWLTEQLPSGGTAPTLALLTEKELLLYLSLPETREALSRPARTAPLIATRLVHSGPSKGSVPYDAELSFALRTGTRHGVDTHLFSVESPQELAAWTRQLVDGCHRAAEGVQEVSTACTWNGRPCSLSVHIDKGFTLWAAEPGAARAVLLRQPFEKLQMSSDDGASLLFLDFGGAEGEIQLDLHSCPKTIVFIIHSFLSAKVTRLGLLA
- binding: binds

Reference: publication PMC13333962
